The other results are listed elsewhere or left out.
Experiments:
Assay in all cases: glycan array binding signal (z-score within array); higher = stronger binding
Details in all cases: glycan notation: IUPAC condensed, linker removed
Fuc(a1-2)Gal = biological target: Fuc(a1-2)Gal
In short: (§1)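 Glycan array data came from 3228 arrays in the Consortium for Functional Glycomics database, and only arrays with an available protein sequence were kept. Glycan names were put into IUPAC-condensed notation, and columns mapping to the same glycan were averaged. The binding signal is a within-array Z-score, averaged across arrays of one protein sequence run at different concentrations or buffers and across linkers. A negative Z-score can be read as non-binding.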

Fuc(a1-2)Gal(b1-3)GalNAc = biological target: Fuc(a1-2)Gal(b1-3)GalNAc
In short: as §1

[1] = biological target: Fuc(a1-2)Gal(b1-3)GalNAc(a1-3)[Fuc(a1-2)]Gal(b1-4)Glc
In short: as §1

[2] = biological target: Fuc(a1-2)Gal(b1-3)GalNAc(a1-3)[Fuc(a1-2)]Gal(b1-4)GlcNAc
In short: as §1

[3] = biological target: Fuc(a1-2)Gal(b1-3)GalNAc(b1-3)Gal
In short: as §1

[4] = biological target: Fuc(a1-2)Gal(b1-3)GalNAc(b1-3)Gal(a1-4)Gal(b1-4)Glc
In short: as §1

[5] = biological target: Fuc(a1-2)Gal(b1-3)GalNAc(b1-4)[Neu5Ac(a2-3)]Gal(b1-4)Glc
In short: as §1

Fuc(a1-2)Gal(b1-3)GlcNAc = biological target: Fuc(a1-2)Gal(b1-3)GlcNAc
In short: as §1

[6] = biological target: Fuc(a1-2)Gal(b1-3)GlcNAc(b1-2)Man(a1-3)[Fuc(a1-2)Gal(b1-3)GlcNAc(b1-2)Man(a1-6)]Man(b1-4)GlcNAc(b1-4)GlcNAc
In short: as §1

[7] = biological target: Fuc(a1-2)Gal(b1-3)GlcNAc(b1-2)Man(a1-3)[Fuc(a1-2)Gal(b1-3)GlcNAc(b1-2)Man(a1-6)]Man(b1-4)GlcNAc(b1-4)[Fuc(a1-6)]GlcNAc
In short: as §1

[8] = biological target: Fuc(a1-2)Gal(b1-3)GlcNAc(b1-3)Gal(b1-4)Glc
In short: as §1

[9] = biological target: Fuc(a1-2)Gal(b1-3)GlcNAc(b1-3)GalNAc
In short: as §1

[10] = biological target: Fuc(a1-2)Gal(b1-3)GlcNAc(b1-3)[Fuc(a1-2)Gal(b1-3)GlcNAc(b1-6)]GalNAc
In short: as §1

[11] = biological target: Fuc(a1-2)Gal(b1-3)GlcNAc(b1-3)[Gal(b1-4)GlcNAc(b1-6)]Gal(b1-4)Glc
In short: as §1

[12] = biological target: Fuc(a1-2)Gal(b1-3)GlcNAc(b1-3)[Neu5Ac(a2-6)Gal(b1-4)GlcNAc(b1-6)]Gal(b1-4)Glc
In short: as §1

[13] = biological target: Fuc(a1-2)Gal(b1-3)GlcNAc6S
In short: as §1

[14] = biological target: Fuc(a1-2)Gal(b1-3)[Fuc(a1-4)]GlcNAc
In short: as §1

[15] = biological target: Fuc(a1-2)Gal(b1-3)[Fuc(a1-4)]GlcNAc(b1-2)Man(a1-3)[Fuc(a1-2)Gal(b1-3)[Fuc(a1-4)]GlcNAc(b1-2)Man(a1-3)]Man(b1-4)GlcNAc(b1-4)GlcNAc
In short: as §1

[16] = biological target: Fuc(a1-2)Gal(b1-3)[Fuc(a1-4)]GlcNAc(b1-2)Man(a1-3)[Fuc(a1-2)Gal(b1-3)[Fuc(a1-4)]GlcNAc(b1-2)Man(a1-6)]Man(b1-4)GlcNAc(b1-4)[Fuc(a1-6)]GlcNAc(b1-4)[Fuc(a1-6)]GlcNAc
In short: as §1

[17] = biological target: Fuc(a1-2)Gal(b1-3)[Fuc(a1-4)]GlcNAc(b1-3)[Fuc(a1-3)[Gal(b1-4)]GlcNAc(b1-6)]Gal(b1-4)Glc
In short: as §1

[18] = biological target: Fuc(a1-2)Gal(b1-3)[Fuc(a1-4)]GlcNAc(b1-3)[Gal(b1-4)GlcNAc(b1-6)]Gal(b1-4)Glc
In short: as §1

[19] = biological target: Fuc(a1-2)Gal(b1-4)Fuc(a1-3)]GlcNAc(b1-2)Man(a1-3)[Fuc(a1-2)Gal(b1-4)[Fuc(a1-3)]GlcNAc(b1-2)Man(a1-6)]Man(b1-4)GlcNAc(b1-4)GlcNAc
In short: as §1

Fuc(a1-2)Gal(b1-4)Glc = biological target: Fuc(a1-2)Gal(b1-4)Glc
In short: as §1

Fuc(a1-2)Gal(b1-4)Glc6S = biological target: Fuc(a1-2)Gal(b1-4)Glc6S
In short: as §1

Fuc(a1-2)Gal(b1-4)GlcNAc = biological target: Fuc(a1-2)Gal(b1-4)GlcNAc
In short: as §1

[20] = biological target: Fuc(a1-2)Gal(b1-4)GlcNAc(b1-2)Man
In short: as §1

[21] = biological target: Fuc(a1-2)Gal(b1-4)GlcNAc(b1-2)Man(a1-3)[Fuc(a1-2)Gal(b1-4)GlcNAc(b1-2)Man(a1-6)]Man(b1-4)GlcNAc(b1-4)GlcNAc
In short: as §1

[22] = biological target: Fuc(a1-2)Gal(b1-4)GlcNAc(b1-2)Man(a1-3)[Fuc(a1-2)Gal(b1-4)GlcNAc(b1-2)Man(a1-6)]Man(b1-4)GlcNAc(b1-4)[Fuc(a1-6)]GlcNAc
In short: as §1

[23] = biological target: Fuc(a1-2)Gal(b1-4)GlcNAc(b1-2)[Fuc(a1-2)Gal(b1-4)GlcNAc(b1-4)]Man(a1-3)[Fuc(a1-2)Gal(b1-4)GlcNAc(b1-2)Man(a1-6)]Man(b1-4)GlcNAc(b1-4)GlcNAc
In short: as §1

[24] = biological target: Fuc(a1-2)Gal(b1-4)GlcNAc(b1-3)Gal(b1-4)GlcNAc
In short: as §1

[25] = biological target: Fuc(a1-2)Gal(b1-4)GlcNAc(b1-3)Gal(b1-4)GlcNAc(b1-2)Man(a1-3)[Fuc(a1-2)Gal(b1-4)GlcNAc(b1-3)Gal(b1-4)GlcNAc(b1-2)Man(a1-6)]Man(b1-4)GlcNAc(b1-4)GlcNAc
In short: as §1

[26] = biological target: Fuc(a1-2)Gal(b1-4)GlcNAc(b1-3)Gal(b1-4)GlcNAc(b1-3)Gal(b1-4)GlcNAc
In short: as §1

[27] = biological target: Fuc(a1-2)Gal(b1-4)GlcNAc(b1-3)GalNAc
In short: as §1

[28] = biological target: Fuc(a1-2)Gal(b1-4)GlcNAc(b1-3)[Fuc(a1-2)Gal(b1-4)GlcNAc(b1-6)]GalNAc
In short: as §1

[29] = biological target: Fuc(a1-2)Gal(b1-4)GlcNAc(b1-3)[Fuc(a1-3)[Gal(b1-4)]GlcNAc(b1-6)]Gal(b1-4)Glc
In short: as §1

[30] = biological target: Fuc(a1-2)Gal(b1-4)GlcNAc(b1-6)GalNAc
In short: as §1

[31] = biological target: Fuc(a1-2)Gal(b1-4)GlcNAc6S
In short: as §1

B1: RsaA-N-term (Caulobacter crescentus), P35828 (protein)
chain: MAYTTAQLVTAYTNANLGKAPDAATTLTLDAYATQTQTGGLSDAAALTNTLKLVNSTTAVAIQTYQFFTGVAPSAAGLDFLVDSTTNTNDLNDAYYSKFAQENRFINFSINLATGAGAGATAFAAAYTGVSYAQTVATAYDKIIGNAVATAAGVDVAAAVAFLSRQANIDYLTAFVRANTPFTAAADIDLAVKAALIGTILNAATVSGIGGYATATAAMINDLSDGALSTDNAAGVNLFTAYPSSGVSGSTLSLTTGTDTLTGTANNDTFVAGEVAGDGSGWSHPQFEKGG
glycan array binding signal (z-score) (Fuc(a1-2)Gal): 0.312 | glycan array binding signal (z-score) (Fuc(a1-2)Gal(b1-3)GalNAc): -0.026 | glycan array binding signal (z-score) [1]: 0.281 | glycan array binding signal (z-score) [2]: 0.508 | glycan array binding signal (z-score) [3]: -0.298 | glycan array binding signal (z-score) [4]: -0.414 | glycan array binding signal (z-score) [5]: 0.175 | glycan array binding signal (z-score) (Fuc(a1-2)Gal(b1-3)GlcNAc): 0.278 | glycan array binding signal (z-score) [6]: -0.148 | glycan array binding signal (z-score) [7]: -0.76 | glycan array binding signal (z-score) [8]: 1.29 | glycan array binding signal (z-score) [9]: 0.429 | glycan array binding signal (z-score) [10]: -0.36 | glycan array binding signal (z-score) [11]: 0.22 | glycan array binding signal (z-score) [12]: -0.539 | glycan array binding signal (z-score) [13]: -0.712 | glycan array binding signal (z-score) [14]: -0.197 | glycan array binding signal (z-score) [15]: 0.077 | glycan array binding signal (z-score) [16]: 1.01 | glycan array binding signal (z-score) [17]: -1.93 | glycan array binding signal (z-score) [18]: -0.876 | glycan array binding signal (z-score) [19]: 5.97 | glycan array binding signal (z-score) (Fuc(a1-2)Gal(b1-4)Glc): -1.21 | glycan array binding signal (z-score) (Fuc(a1-2)Gal(b1-4)Glc6S): -0.343 | glycan array binding signal (z-score) (Fuc(a1-2)Gal(b1-4)GlcNAc): 0.402 | glycan array binding signal (z-score) [20]: -0.672 | glycan array binding signal (z-score) [21]: 0.243 | glycan array binding signal (z-score) [22]: 7.05 | glycan array binding signal (z-score) [23]: -1.7 | glycan array binding signal (z-score) [24]: -0.634 | glycan array binding signal (z-score) [25]: 0.407 | glycan array binding signal (z-score) [26]: 1.12 | glycan array binding signal (z-score) [27]: -0.586 | glycan array binding signal (z-score) [28]: -0.459 | glycan array binding signal (z-score) [29]: -0.212 | glycan array binding signal (z-score) [30]: 0.406 | glycan array binding signal (z-score) [31]: 1.98
